Patent US20240158512A1 (TRUEBINDING, published 2024)
No constants are given. Whether binding was seen depends on the method and setting. Some results given as binding are weak or reduced against the parent protein; the word gives no strength.

Chains of the proteins cited; added tags and fusions are not shown.
UniProt P17931: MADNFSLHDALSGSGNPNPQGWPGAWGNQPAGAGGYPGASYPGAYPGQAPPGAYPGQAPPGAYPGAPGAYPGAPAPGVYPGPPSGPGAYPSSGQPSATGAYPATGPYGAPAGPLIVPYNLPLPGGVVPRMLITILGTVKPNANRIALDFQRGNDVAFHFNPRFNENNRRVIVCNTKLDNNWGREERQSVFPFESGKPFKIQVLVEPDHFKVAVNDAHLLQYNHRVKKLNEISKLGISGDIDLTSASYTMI

Legend:
Galectin-3 [1] = target: Galectin-3 (UniProt P17931); experiment: ELISA; stability test of 50 mg/mL TB006 DS (Table 7)
Galectin-3 [2] = target: Galectin-3 (UniProt P17931); experiment: BLI; second stability test of 20 mg/mL TB006 DS (Table 6)
Galectin-3 [3] = target: Galectin-3 (UniProt P17931); experiment: BLI; stability test of 20 mg/mL TB006 DS (Table 5)

Measured: binding

B1: TB006 (antibody, human IgG4 S228P, kappa, V domains shown)
VH: QVQLVQSGAEVKKPGASVKVSCKASGYSFTNYYMHWVRQAPGQRLEWMGWIYPGSGNTNYNEKFQGRVTITADTSASTAYMELSSLRSEDTAVYYCSTAPGGFDVWGQGTTVTVSS
VL: DIVMTQTPLSLSVTPGQPASISCKSSKSLLHSDGITYLYWYLQKPGQSPQLLIYRMSNLASGVPDRFSGSGSGTDFTLKISRVEAEDVGVYYCAQMLEFPLTFGQGTKLEIKR
binds: all assays above
